# Data: publication doi:10.1101/2022.08.12.503727
# Results are given in words; binding and its absence hold for the method and conditions named. For some assays here: Binding seen in cells or lysates may run through a third protein. Some entries that bind do so weakly or less than the wild type.
# T1: RBP45d (Arabidopsis thaliana, UniProt Q8VXZ9 1-425)
# T1 sequence: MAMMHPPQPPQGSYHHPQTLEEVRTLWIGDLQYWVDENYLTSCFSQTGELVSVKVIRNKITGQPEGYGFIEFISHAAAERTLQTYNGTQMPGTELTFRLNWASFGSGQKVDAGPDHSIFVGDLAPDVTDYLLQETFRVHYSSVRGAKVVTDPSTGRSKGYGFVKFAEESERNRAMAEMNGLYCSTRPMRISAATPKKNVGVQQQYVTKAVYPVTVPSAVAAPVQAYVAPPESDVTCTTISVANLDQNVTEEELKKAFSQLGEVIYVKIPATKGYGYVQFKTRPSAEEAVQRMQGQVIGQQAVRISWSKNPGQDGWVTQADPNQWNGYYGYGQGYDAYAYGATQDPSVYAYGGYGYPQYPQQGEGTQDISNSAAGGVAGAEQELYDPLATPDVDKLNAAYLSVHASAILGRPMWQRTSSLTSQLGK
# T2: RBP47b (Arabidopsis thaliana) (UniProt Q0WW84)
# T2 sequence: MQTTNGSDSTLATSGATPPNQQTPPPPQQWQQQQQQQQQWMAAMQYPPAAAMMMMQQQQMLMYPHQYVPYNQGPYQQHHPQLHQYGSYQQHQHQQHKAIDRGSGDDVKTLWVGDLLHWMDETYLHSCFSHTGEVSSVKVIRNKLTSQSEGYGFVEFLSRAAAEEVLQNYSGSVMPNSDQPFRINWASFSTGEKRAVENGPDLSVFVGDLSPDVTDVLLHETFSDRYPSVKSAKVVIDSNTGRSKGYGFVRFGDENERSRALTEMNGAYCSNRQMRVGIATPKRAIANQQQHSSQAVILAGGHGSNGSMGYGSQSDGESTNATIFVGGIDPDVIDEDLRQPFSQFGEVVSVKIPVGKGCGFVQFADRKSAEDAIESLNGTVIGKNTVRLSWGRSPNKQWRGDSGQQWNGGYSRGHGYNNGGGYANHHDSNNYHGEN
# T3: U1A (Arabidopsis thaliana) (UniProt Q39244)
# T3 sequence: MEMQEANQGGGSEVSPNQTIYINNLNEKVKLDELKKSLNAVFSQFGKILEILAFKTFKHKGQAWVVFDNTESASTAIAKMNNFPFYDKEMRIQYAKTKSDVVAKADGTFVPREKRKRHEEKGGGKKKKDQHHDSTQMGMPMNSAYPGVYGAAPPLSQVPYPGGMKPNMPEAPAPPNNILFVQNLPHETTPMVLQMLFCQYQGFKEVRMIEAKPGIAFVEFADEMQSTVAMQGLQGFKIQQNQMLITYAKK
# T4: U1-70K (Arabidopsis thaliana), Q42404
# T4 chain: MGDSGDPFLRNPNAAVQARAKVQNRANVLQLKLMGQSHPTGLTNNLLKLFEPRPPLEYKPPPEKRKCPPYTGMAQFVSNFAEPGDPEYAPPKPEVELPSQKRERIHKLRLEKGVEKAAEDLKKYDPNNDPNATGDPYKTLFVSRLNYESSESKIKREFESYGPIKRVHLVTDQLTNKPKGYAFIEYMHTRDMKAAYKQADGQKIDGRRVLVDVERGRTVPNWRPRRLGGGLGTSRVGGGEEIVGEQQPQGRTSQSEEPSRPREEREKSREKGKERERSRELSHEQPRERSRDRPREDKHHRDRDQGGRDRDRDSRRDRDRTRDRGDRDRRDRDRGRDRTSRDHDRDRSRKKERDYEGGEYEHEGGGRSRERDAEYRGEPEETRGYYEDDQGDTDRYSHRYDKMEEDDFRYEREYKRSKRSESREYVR
# B1: PRP39a (protein, UniProt Q93ZR3 1-768)
# chain: MGDSEAMVSEGYTSAPYGDYNASAATVESTGQETAPIVDASHSVNNDSLVNGTAPVENGSATDNVAVTAPAAEHGDNTGSTLSTEEERLWNIVRANSLEFNAWTALIDETERIAQDNIAKIRKVYDAFLAEFPLCYGYWKKFADHEARVGAMDKVVEVYERAVLGVTYSVDIWLHYCTFAINTYGDPETIRRLFERALVYVGTDFLSSPLWDKYIEYEYMQQDWSRVALIYTRILENPIQNLDRYFSSFKELAETRPLSELRSAEESAAAAVAVAGDASESAASESGEKADEGRSQVDGSTEQSPKLESASSTEPEELKKYVGIREAMYIKSKEFESKIIGYEMAIRRPYFHVRPLNVAELENWHNYLDFIERDGDFNKVVKLYERCVVTCANYPEYWIRYVTNMEASGSADLAENALARATQVFVKKQPEIHLFAARLKEQNGDIAGARAAYQLVHSEISPGLLEAVIKHANMEYRLGNLDDAFSLYEQVIAVEKGKEHSTILPLLYAQYSRFSYLVSRDAEKARRIIVEALDHVQPSKPLMEALIHFEAIQPPPREIDYLEPLVEKVIKPDADAQNIASSTEREELSLIYIEFLGIFGDVKSIKKAEDQHVKLFYPHRSTSELKKRSADDFLASDRTKMAKTYNGTPPAQPVSNAYPNAQAQWSGGYAAQPQTWPPAQAAPAQPQQWNPAYGQQAAYGAYGGYPAGYTAPQAPTPVPQAAAYGAYPAQTYPTQSYAPPVAAAAPAAAPVQQPAAAVAPQAYYNTYY
# B2: RBP45d (protein, UniProt Q8VXZ9 1-425)
# chain: T1 sequence
# B3: RBP45d, Q8VXZ9 1-425 (protein)
# chain: T1 sequence
# Experiments:
# [1] = target: T1, RBP45d; assay: two-hybrid
# [2] = target: T1, RBP45d; assay: split reporter
# [3] = target: T2, RBP47b (Arabidopsis thaliana); assay: split reporter
# [4] = target: T3, U1A (Arabidopsis thaliana); assay: two-hybrid
# [5] = target: T4, U1-70K (Arabidopsis thaliana), Q42404; assay: two-hybrid; details: remark: other sources report otherwise
binder,measurement,setting,value
B1,binding,[1],binds
same,binding,[2],binds
same,binding,[3],no binding
B2,binding,[4],no binding
B3,binding,[5],no binding
